Test results: patent US20250257401A1, “BIOMARKER FOR TUBEROUS SCLEROSIS COMPLEX WITH NO MUTATION IDENTIFIED IN TSC1 OR TSC2 GENE, AND USES THEREOF” (Guangzhou KingMed Transformative Medicine Institute Co., …, priority 2022, published 2025)

Experiments:
Assay type in all cases: cell-based, human
HaCaT cells = assay: Dose-dependent cell viability, preliminary IC50 experiment (HaCaT)
HEK293 cells = assay: Dose-dependent cell viability, preliminary IC50 experiment (HEK293)
IQGAP2-silenced cells = assay: Cell proliferation of IQGAP2-silenced cells after administration of inhibitors (CCK8); conditions: IQGAP2-silenced HaCaT and HEK293 cells; each inhibitor in a dose of IC50; FIG. 7 and FIG. 8
From the text: To verify whether the abnormal IQGAP2 affected cell proliferation, IQGAP2-silenced cells were constructed using an RNAi approach. Since TSC could affect the skin and kidney of the patients, human keratinocytes (HaCaT) cells and human embryonic kidney 293 (HEK 293) cells were chosen as cell models. The shRNA sequence was designed and constructed for the IQGAP2 gene (as shown in Table 1), and IQGAP2-silenced HaCaT cells and IQGAP2-silenced HEK293 cells were obtained by lentiviral transduction. Subsequently, the cell proliferation of IQGAP2-silenced cells was detected at 24, 48, and 72 hours by using Cell Counting Kit 8 (CCK8).
Based upon the above test results, it was hypothesized that IQGAP2 silencing could lead to increased cell proliferation through activating AKT activity and mTORC1 activity. To further verify the pathway, a AKT inhibitor (AKT inhibitor VIII) and mTOR inhibitors (Torkinib and Rapamycin) were used to treat IQGAP2-silenced human keratinocytes (HaCaT cells) and IQGAP2-silenced HEK293 cells, respectively. That is, the pathway was further determined by verifying whether the cell proliferation caused by IQGAP2 silencing can be alleviated by inhibiting the AKT activity and mTORC1 activity (key factors of the mTOR pathway) in IQGAP2-silenced cells with the inhibitors.
Then, HaCaT cells and HEK293 cells were administrated with each inhibitor in a dose of IC50. […]

For `CC(C)n1nc(-c2cc3cc(O)ccc3[nH]2)c2c(N)ncnc21` [Torkinib], the IC50 (HaCaT cells) was 12.5 µM, the IC50 (HEK293 cells) was 781 nM and the “cell proliferation of IQGAP2-silenced cells” value (IQGAP2-silenced cells) was “reduce the cell proliferation”.
